From patent US20200399643
Negatives hold for the conditions tested. Where a protein sequence is shown, tags need not be part of it.

Target: T1, p38γ (MAPK12) (Homo sapiens) (UniProt P53778)
T1 sequence (limits assumed): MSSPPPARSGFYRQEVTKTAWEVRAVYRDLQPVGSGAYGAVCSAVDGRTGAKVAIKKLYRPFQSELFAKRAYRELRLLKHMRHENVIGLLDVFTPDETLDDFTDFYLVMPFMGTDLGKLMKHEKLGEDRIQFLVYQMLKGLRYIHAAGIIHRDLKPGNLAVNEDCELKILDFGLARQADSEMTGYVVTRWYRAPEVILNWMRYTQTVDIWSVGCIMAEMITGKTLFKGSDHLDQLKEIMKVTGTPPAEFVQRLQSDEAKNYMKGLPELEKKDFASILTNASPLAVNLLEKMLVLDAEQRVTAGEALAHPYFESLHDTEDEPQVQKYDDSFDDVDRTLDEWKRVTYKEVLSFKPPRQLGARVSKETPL
Experiment: inhibition of the protein
Details: irrelevant control oligonucleotide used as reference in ADP-Glo assay; purified recombinant protein; protein details: human recombinant, Promega; dose not given here

GGGAGACAAGAAUAAACGCUCAAGAGAGUGGUAAAGCUGUCGUUGGUCUUCCAUUAGAGCCCGUUCGACAGGAGGCUCACAACAGGC [IRRE1]
functional effect of the aptamer: not active

GGGAGACAAGAAUAAACGCUCAAGCUUGAGGGUAGCUUUAGUUGGUCUCCGACAGAGCCUCUGUUCGACAGGAGGCUCACAACAGGC [IRRE2]
functional effect of the aptamer: not active
